Our source for the binding values is publication PMC11335216.

The chains behind the UniProt entries cited, without tags or fusion partners. Residues count along the entry.
UniProt P05161, residues 1-157: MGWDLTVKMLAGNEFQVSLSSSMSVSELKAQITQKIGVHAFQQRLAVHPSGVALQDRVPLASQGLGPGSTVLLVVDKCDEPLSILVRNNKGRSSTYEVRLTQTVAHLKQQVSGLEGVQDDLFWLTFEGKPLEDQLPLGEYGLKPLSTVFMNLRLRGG

Like-named read-outs stand apart in the source and are kept apart here. These are yes or no findings as the source states them, for the method shown. Binding seen in cells or lysates may run through a third protein. Some results given as binding are weak or reduced against the parent protein; the word gives no strength. Tags and fused reporters may be left off the sequences shown.

Common to all, as to assay: co-IP; lysates of cells transfected with PPP2R2B-FLAG or vector control; anti-FLAG magnetic beads or Protein A/G magnetic beads plus anti-PPP2R2B, anti-IPO5 or anti-ISG15 antibody overnight at 4 °C; eluted in SDS buffer; western blot; with and without PPP2R2B overexpression
Assay [1] addresses T1, PPP2R2B-FLAG (serine/threonine protein phosphatase 2A regulatory subunit PPP2R2B) (human) (UniProt Q00005).
T1 sequence: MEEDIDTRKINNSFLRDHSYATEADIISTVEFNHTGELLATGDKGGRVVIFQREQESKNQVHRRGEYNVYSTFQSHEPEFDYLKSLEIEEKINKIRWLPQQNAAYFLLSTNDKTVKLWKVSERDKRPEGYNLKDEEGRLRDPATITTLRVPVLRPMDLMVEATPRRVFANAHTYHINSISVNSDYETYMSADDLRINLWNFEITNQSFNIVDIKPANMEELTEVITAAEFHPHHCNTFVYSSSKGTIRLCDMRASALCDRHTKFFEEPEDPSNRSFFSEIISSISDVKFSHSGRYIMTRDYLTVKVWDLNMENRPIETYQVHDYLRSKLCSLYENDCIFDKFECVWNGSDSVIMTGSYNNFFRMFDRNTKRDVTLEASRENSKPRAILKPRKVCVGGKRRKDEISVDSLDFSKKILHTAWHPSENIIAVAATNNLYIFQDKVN

Assay [2] deals with T1, PPP2R2B-FLAG (serine/threonine protein phosphatase 2A regulatory subunit PPP2R2B) (human). This is another data set of the same source.
In assay [3] the target is T2, importin 5 (IPO5) (human (endogenous in the human cell lines used)) (UniProt O00410).
T2 sequence: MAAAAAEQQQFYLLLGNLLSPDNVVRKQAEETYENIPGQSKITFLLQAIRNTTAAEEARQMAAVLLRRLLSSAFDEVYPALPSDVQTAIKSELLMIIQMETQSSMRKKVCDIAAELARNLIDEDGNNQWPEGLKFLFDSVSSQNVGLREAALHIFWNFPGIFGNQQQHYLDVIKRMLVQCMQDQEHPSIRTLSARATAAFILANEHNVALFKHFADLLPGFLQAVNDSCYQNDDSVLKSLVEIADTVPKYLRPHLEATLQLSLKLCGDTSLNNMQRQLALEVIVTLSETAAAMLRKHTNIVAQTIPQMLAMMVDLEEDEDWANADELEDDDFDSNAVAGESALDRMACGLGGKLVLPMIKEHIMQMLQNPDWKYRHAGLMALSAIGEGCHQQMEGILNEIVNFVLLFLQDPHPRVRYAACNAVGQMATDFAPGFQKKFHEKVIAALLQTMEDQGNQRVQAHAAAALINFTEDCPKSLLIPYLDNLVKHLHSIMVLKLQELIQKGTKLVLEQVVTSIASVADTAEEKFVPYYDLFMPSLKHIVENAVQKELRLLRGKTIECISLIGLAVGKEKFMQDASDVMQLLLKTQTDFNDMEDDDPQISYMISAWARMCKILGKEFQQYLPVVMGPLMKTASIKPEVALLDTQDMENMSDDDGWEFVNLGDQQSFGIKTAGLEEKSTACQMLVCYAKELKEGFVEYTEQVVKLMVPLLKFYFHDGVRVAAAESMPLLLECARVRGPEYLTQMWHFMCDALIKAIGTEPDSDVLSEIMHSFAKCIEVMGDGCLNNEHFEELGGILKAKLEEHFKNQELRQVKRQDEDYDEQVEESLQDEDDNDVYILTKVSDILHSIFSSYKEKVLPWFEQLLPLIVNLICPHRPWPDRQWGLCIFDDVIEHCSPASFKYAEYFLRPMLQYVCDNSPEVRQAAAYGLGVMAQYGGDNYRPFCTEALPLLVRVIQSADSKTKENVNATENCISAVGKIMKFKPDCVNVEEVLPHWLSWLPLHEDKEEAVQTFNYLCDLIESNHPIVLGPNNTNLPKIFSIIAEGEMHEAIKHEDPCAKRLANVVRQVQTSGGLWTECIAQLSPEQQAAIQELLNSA

Consider “interferon stimulated gene 15 (ISG15) (from UniProt P05161 1-157)”, for which the binding result in assay [1] was “binds”.

B1: importin 5 (IPO5) (protein, UniProt O00410 1-1097)
chain: MAAAAAEQQQFYLLLGNLLSPDNVVRKQAEETYENIPGQSKITFLLQAIRNTTAAEEARQMAAVLLRRLLSSAFDEVYPALPSDVQTAIKSELLMIIQMETQSSMRKKVCDIAAELARNLIDEDGNNQWPEGLKFLFDSVSSQNVGLREAALHIFWNFPGIFGNQQQHYLDVIKRMLVQCMQDQEHPSIRTLSARATAAFILANEHNVALFKHFADLLPGFLQAVNDSCYQNDDSVLKSLVEIADTVPKYLRPHLEATLQLSLKLCGDTSLNNMQRQLALEVIVTLSETAAAMLRKHTNIVAQTIPQMLAMMVDLEEDEDWANADELEDDDFDSNAVAGESALDRMACGLGGKLVLPMIKEHIMQMLQNPDWKYRHAGLMALSAIGEGCHQQMEGILNEIVNFVLLFLQDPHPRVRYAACNAVGQMATDFAPGFQKKFHEKVIAALLQTMEDQGNQRVQAHAAAALINFTEDCPKSLLIPYLDNLVKHLHSIMVLKLQELIQKGTKLVLEQVVTSIASVADTAEEKFVPYYDLFMPSLKHIVENAVQKELRLLRGKTIECISLIGLAVGKEKFMQDASDVMQLLLKTQTDFNDMEDDDPQISYMISAWARMCKILGKEFQQYLPVVMGPLMKTASIKPEVALLDTQDMENMSDDDGWEFVNLGDQQSFGIKTAGLEEKSTACQMLVCYAKELKEGFVEYTEQVVKLMVPLLKFYFHDGVRVAAAESMPLLLECARVRGPEYLTQMWHFMCDALIKAIGTEPDSDVLSEIMHSFAKCIEVMGDGCLNNEHFEELGGILKAKLEEHFKNQELRQVKRQDEDYDEQVEESLQDEDDNDVYILTKVSDILHSIFSSYKEKVLPWFEQLLPLIVNLICPHRPWPDRQWGLCIFDDVIEHCSPASFKYAEYFLRPMLQYVCDNSPEVRQAAAYGLGVMAQYGGDNYRPFCTEALPLLVRVIQSADSKTKENVNATENCISAVGKIMKFKPDCVNVEEVLPHWLSWLPLHEDKEEAVQTFNYLCDLIESNHPIVLGPNNTNLPKIFSIIAEGEMHEAIKHEDPCAKRLANVVRQVQTSGGLWTECIAQLSPEQQAAIQELLNSA
B1: the binding entry in assay [2] is given as “binds”.

B2: PPP2R2B-FLAG (serine/threonine protein phosphatase 2A regulatory subunit PPP2R2B) (protein, UniProt Q00005 1-443)
chain: MEEDIDTRKINNSFLRDHSYATEADIISTVEFNHTGELLATGDKGGRVVIFQREQESKNQVHRRGEYNVYSTFQSHEPEFDYLKSLEIEEKINKIRWLPQQNAAYFLLSTNDKTVKLWKVSERDKRPEGYNLKDEEGRLRDPATITTLRVPVLRPMDLMVEATPRRVFANAHTYHINSISVNSDYETYMSADDLRINLWNFEITNQSFNIVDIKPANMEELTEVITAAEFHPHHCNTFVYSSSKGTIRLCDMRASALCDRHTKFFEEPEDPSNRSFFSEIISSISDVKFSHSGRYIMTRDYLTVKVWDLNMENRPIETYQVHDYLRSKLCSLYENDCIFDKFECVWNGSDSVIMTGSYNNFFRMFDRNTKRDVTLEASRENSKPRAILKPRKVCVGGKRRKDEISVDSLDFSKKILHTAWHPSENIIAVAATNNLYIFQDKVN
On to B2, for which, in assay [3], the binding result is recorded as “binds”.
